Results are given in words; binding and its absence hold for the method and conditions named. In cells and extracts the contact can be indirect. Some binding calls cover weakened binding; strength is not graded here.
How the values were obtained:
[1] = molecular target: Histone deacetylase 4 (mouse (endogenous in mTECs)) (UniProt Q6NZM9); test: co-IP; lysate of mTECs treated with or without TGF-β1 (5 ng/ml) for 48 hours; IP with Foxo3a antibody or HDAC4 antibody, IgG control; Protein A/G Magnetic Beads, washed five times with PBST (0.05% Tween-20), eluted with 1× SDS loading buffer; immunoblot
[2] = molecular target: Foxo3a (mouse (endogenous in mTECs)) (UniProt Q9WVH4); test: as above

By UniProt entry, the sequences of proteins in these tests, tags left out.
UniProt Q6NZM9: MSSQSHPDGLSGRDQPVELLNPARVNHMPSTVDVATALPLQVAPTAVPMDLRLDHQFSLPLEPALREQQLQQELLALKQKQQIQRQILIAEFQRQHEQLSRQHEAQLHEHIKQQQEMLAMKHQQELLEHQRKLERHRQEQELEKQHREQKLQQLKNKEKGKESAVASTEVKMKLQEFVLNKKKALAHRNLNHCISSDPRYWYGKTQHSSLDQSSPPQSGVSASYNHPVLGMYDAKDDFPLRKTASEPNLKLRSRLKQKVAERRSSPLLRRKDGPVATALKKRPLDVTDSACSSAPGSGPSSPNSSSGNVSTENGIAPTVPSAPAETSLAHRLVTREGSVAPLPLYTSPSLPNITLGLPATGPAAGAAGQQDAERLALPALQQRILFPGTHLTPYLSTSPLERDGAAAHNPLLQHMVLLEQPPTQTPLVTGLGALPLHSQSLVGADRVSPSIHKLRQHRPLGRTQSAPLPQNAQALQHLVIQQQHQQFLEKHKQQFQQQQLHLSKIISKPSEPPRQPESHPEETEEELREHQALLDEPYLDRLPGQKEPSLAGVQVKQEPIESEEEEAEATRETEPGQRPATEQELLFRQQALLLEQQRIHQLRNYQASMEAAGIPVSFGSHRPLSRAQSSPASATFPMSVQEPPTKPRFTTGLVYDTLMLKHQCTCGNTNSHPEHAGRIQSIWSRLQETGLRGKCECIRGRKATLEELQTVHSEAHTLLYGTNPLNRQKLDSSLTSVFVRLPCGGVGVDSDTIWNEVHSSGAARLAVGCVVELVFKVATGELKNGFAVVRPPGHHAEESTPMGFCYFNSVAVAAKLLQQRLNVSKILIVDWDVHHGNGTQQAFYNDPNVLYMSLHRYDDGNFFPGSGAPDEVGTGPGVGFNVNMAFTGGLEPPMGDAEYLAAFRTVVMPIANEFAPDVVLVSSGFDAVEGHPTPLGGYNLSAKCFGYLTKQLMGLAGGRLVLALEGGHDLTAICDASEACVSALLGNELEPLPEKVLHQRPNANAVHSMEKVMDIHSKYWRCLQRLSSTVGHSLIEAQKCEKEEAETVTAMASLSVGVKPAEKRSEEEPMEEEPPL
UniProt Q9WVH4: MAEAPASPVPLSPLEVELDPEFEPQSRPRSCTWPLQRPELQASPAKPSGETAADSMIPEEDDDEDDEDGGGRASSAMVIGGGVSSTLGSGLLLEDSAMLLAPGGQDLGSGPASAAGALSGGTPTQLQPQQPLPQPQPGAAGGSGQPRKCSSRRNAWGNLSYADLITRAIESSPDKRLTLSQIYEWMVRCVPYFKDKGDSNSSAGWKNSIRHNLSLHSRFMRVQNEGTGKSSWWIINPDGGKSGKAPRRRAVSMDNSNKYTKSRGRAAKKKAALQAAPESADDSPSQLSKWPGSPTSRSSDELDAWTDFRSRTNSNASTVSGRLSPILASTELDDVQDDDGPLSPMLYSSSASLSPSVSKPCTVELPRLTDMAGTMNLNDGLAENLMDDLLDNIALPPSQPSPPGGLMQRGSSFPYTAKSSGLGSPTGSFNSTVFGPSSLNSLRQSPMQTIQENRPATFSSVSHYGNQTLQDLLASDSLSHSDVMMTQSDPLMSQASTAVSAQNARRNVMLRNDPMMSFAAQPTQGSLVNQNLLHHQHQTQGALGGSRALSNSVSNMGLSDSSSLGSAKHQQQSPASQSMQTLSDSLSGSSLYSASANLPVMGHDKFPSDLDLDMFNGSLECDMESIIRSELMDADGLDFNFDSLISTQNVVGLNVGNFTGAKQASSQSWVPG

binding [1] | binding [2] | Substance
binds | – | Foxo3a (from UniProt Q9WVH4 1-672)
– | binds | Histone deacetylase 4 (from UniProt Q6NZM9 1-1076) (enzyme)

From paper PMC12636735
